Values from PubChem BioAssay AID1508597 (Cure First, 2020).
This is an unselected part of the about 2,100 reagents, in one setting of the screen. 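Calls flag viability under 80% in either arm, not effects specific to rucaparib; the reference for percent is not stated.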 A number with no mark means an inactive call. Some reagents were tested in more than one well and are listed for each. Not stated in the record: the 100% reference.

Assay: 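Knock-downs altering ovarian cancer cell survival with or without PARP inhibitor rucaparib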 (primary screen)
Cell system: human ovarian carcinoma lines grown from tumours: OCI-P5x (papillary serous) and OCI-C5x (clear cell)
Knock-down reagent: siRNA pool against human genes, 1.25 pmol siRNA per well
Time to read-out: 72 h or 96 h, depending on the cell culture
Conditions: rucaparib 20 µM (about IC30) or vehicle, present until read-out
Rucaparib or vehicle: Vehicle
Cell line: OCI-C5x (clear cell)
Read-out: 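ATP luminescence measured at 72 or 96 h according to the culture, then normalised and expressed as percent viability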
Scale: viability, normalised: higher = more viable cells remaining
Active means: 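Active when normalised viability falls below 80 percent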
Meaning of the calls: active = viability under 80%; inactive = viability 80% or more

The first 3 entries as a preview:
gene symbol	technical replicate	viability, normalised (%)
DDX55 (DEAD-box helicase 55)	1	34.4 (active)
DDX55 (DEAD-box helicase 55)	2	52.5 (active)
DDX55 (DEAD-box helicase 55)	3	32.1 (active)

The list itself, from the start:
gene symbol	technical replicate	viability, normalised (%)
DDX55 (DEAD-box helicase 55)	1	34.4 (active)
DDX55 (DEAD-box helicase 55)	2	52.5 (active)
DDX55 (DEAD-box helicase 55)	3	32.1 (active)
CHD5 (chromodomain helicase DNA binding protein 5)	1	45.1 (active)
CHD5 (chromodomain helicase DNA binding protein 5)	2	54.4 (active)
CHD5 (chromodomain helicase DNA binding protein 5)	3	34.1 (active)
GTF2H3 (general transcription factor IIH subunit 3)	1	57.7 (active)
GTF2H3 (general transcription factor IIH subunit 3)	2	45.6 (active)
GTF2H3 (general transcription factor IIH subunit 3)	3	41.6 (active)
TERF2IP (TERF2 interacting protein)	1	56.7 (active)
TERF2IP (TERF2 interacting protein)	2	70.1 (active)
TERF2IP (TERF2 interacting protein)	3	63.7 (active)
TGFBR3 (transforming growth factor beta receptor 3)	1	58.4 (active)
TGFBR3 (transforming growth factor beta receptor 3)	2	66.3 (active)
TGFBR3 (transforming growth factor beta receptor 3)	3	44.1 (active)
MAST4	1	56.2 (active)
MAST4	2	59.2 (active)
MAST4	3	69.4 (active)
NAP1L1 (nucleosome assembly protein 1 like 1)	1	39.2 (active)
NAP1L1 (nucleosome assembly protein 1 like 1)	2	53.8 (active)
NAP1L1 (nucleosome assembly protein 1 like 1)	3	49 (active)
TNF (tumor necrosis factor)	1	35.1 (active)
TNF (tumor necrosis factor)	2	54.8 (active)
TNF (tumor necrosis factor)	3	29.6 (active)
LIMK2 (LIM domain kinase 2)	1	93.3
LIMK2 (LIM domain kinase 2)	1	90.1
LIMK2 (LIM domain kinase 2)	2	75 (active)
LIMK2 (LIM domain kinase 2)	2	66.6 (active)
LIMK2 (LIM domain kinase 2)	3	79.3 (active)
LIMK2 (LIM domain kinase 2)	3	67.6 (active)
PRKN (parkin RBR E3 ubiquitin protein ligase)	1	42.1 (active)
PRKN (parkin RBR E3 ubiquitin protein ligase)	2	31.6 (active)
PRKN (parkin RBR E3 ubiquitin protein ligase)	3	46.7 (active)
SUV39H1 (SUV39H1 histone lysine methyltransferase)	1	45 (active)
SUV39H1 (SUV39H1 histone lysine methyltransferase)	1	58.4 (active)
SUV39H1 (SUV39H1 histone lysine methyltransferase)	2	43.8 (active)
SUV39H1 (SUV39H1 histone lysine methyltransferase)	2	59.5 (active)
SUV39H1 (SUV39H1 histone lysine methyltransferase)	3	33 (active)
SUV39H1 (SUV39H1 histone lysine methyltransferase)	3	56.5 (active)
EIF2AK3 (eukaryotic translation initiation factor 2 alpha kinase 3)	1	55.5 (active)
EIF2AK3 (eukaryotic translation initiation factor 2 alpha kinase 3)	2	50.5 (active)
EIF2AK3 (eukaryotic translation initiation factor 2 alpha kinase 3)	3	60 (active)
CDIPT (CDP-diacylglycerol--inositol 3-phosphatidyltransferase)	1	39.7 (active)
CDIPT (CDP-diacylglycerol--inositol 3-phosphatidyltransferase)	2	43.8 (active)
CDIPT (CDP-diacylglycerol--inositol 3-phosphatidyltransferase)	3	40.8 (active)
TNK2 (tyrosine kinase non receptor 2)	1	43.4 (active)
TNK2 (tyrosine kinase non receptor 2)	2	83
TNK2 (tyrosine kinase non receptor 2)	3	58.8 (active)
PPARGC1A (PPARG coactivator 1 alpha)	1	41.2 (active)
PPARGC1A (PPARG coactivator 1 alpha)	2	44.4 (active)
PPARGC1A (PPARG coactivator 1 alpha)	3	52.6 (active)
RAD51C (RAD51 paralog C)	1	54.4 (active)
RAD51C (RAD51 paralog C)	2	50.1 (active)
RAD51C (RAD51 paralog C)	3	49.6 (active)
IFIH1 (interferon induced with helicase C domain 1)	1	54.4 (active)
IFIH1 (interferon induced with helicase C domain 1)	2	51.7 (active)
IFIH1 (interferon induced with helicase C domain 1)	3	64.6 (active)
